Results as given in article PMC7819943, “Rice protein-binding microarrays: a tool to detect cis-acting elements near promoter regions in rice”.
The list shows a part of the results.

Target: T1, OsSMF1 (Oryza sativa, UniProt Q6ZLB0 1-436)
T1 sequence: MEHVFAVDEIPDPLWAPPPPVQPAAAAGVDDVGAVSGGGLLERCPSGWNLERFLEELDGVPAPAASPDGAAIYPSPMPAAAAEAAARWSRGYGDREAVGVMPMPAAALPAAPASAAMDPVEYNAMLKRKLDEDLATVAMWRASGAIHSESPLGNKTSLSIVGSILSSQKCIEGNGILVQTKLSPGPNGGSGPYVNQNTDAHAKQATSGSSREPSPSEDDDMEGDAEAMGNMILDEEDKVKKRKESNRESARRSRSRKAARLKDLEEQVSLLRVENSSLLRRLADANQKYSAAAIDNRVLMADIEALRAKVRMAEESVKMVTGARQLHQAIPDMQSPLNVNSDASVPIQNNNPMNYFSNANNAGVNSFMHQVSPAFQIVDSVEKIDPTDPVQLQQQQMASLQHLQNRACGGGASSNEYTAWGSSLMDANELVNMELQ
Experiment: protein-binding microarray (RPBM); PBS, 2% BSA, 51.3 ng/ul salmon testes DNA, 50 uM zinc acetate, 200 nM TF, 25 C, 1 h; high values mean tight binding
Settings: protein: recombinant; tags: N-terminal polyhistidine and DsRed monomer fusion (pET32a); chain copies: 2; label: CyDye5-dUTP incorporated in the synthesized complementary strand; 3' TTTTT single-stranded linker to array surface; dsDNA, one strand shown
Outline: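 For the binding signal, per-feature fluorescence intensity was read in arbitrary units on an Axon 4000B scanner. Before scanning, a 2% BSA-blocked custom Agilent array made double-stranded with Cy5-dUTP was washed after 1 h at 25 °C with 200 nM protein and 50 µM zinc acetate. The proteins were Ni–NTA-purified transcription factors with N-terminal polyhistidine and DsRed fusions, expressed in E. coli BL21-CodonPlus.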

Q: How did the binding signal turn out when “CATCCATTCTCCTCCCCTCCCGTCATCCACTCATCCCGTGCGGAGTCACCTAGTGCAG” was run?
A: 3690 fluorescence intensity (a.u.)

Q: “GGCCGGCGGCTGAGGCGAGATTCGCGGCGACCACGTCGGCCGGAGTCACCTAGTGCAG” was tested. Which binding signal did it give?
A: 5170 fluorescence intensity (a.u.)

Q: For “AAATATAGAGATTTATTAACATAACAGCCTATCCACGTGGCGGAGTCACCTAGTGCAG”, which binding signal is on record?
A: 17200 fluorescence intensity (a.u.)

Q: For “TCAACCATGGGTCACCTAGGTCACAGTCACATTAGATCTGCGGAGTCACCTAGTGCAG”, which binding signal is on record?
A: 4090 fluorescence intensity (a.u.)

Q: For “GTCCTCGCCCGCCACCGCTCGCCGCCGGCGTCTAGGGTCGCGGAGTCACCTAGTGCAG”, which binding signal is on record?
A: 3960 fluorescence intensity (a.u.)

Q: “CCGATCGGTCGTGACCACCAAGTCATCTTGAAATTCATCACGGAGTCACCTAGTGCAG” was tested. Which binding signal did it give?
A: 4710 fluorescence intensity (a.u.)

Q: How did the binding signal turn out when “ATTTTATTATTCTTGCAGATCAAATTGCCACGTAAGCGTCCGGAGTCACCTAGTGCAG” was run?
A: 47800 fluorescence intensity (a.u.)

Q: Which binding signal does the source give for “GGAGAAACACCAAGCTGACATGTGCATTCCAGATCGCAGACGGAGTCACCTAGTGCAG” here?
A: 5080 fluorescence intensity (a.u.)

Q: For “GCCCAACTTATATGCCACGTCACTAGGACAGCTGGCCCCACGGAGTCACCTAGTGCAG”, which binding signal is on record?
A: 18000 fluorescence intensity (a.u.)

Q: How did the binding signal turn out when “GTGGCATTAGTTTGTCATTTGTGATCGAACCGCTTTGACACGGAGTCACCTAGTGCAG” was run?
A: 3500 fluorescence intensity (a.u.)

Q: Which binding signal does the source give for “CTATGTCTGTGTTTGATGATTGCAAGCTGATGTGGGATGGCGGAGTCACCTAGTGCAG” here?
A: 3280 fluorescence intensity (a.u.)

Q: How did the binding signal turn out when “CCATCGCAAAATCCACCTCAGCTAGCTACCCAAGCGCACGCGGAGTCACCTAGTGCAG” was run?
A: 5010 fluorescence intensity (a.u.)

Q: Which binding signal does the source give for “CCACCACTACGACGTAAGCATCCACACTACTACAGTCCACCGGAGTCACCTAGTGCAG” here?
A: 3770 fluorescence intensity (a.u.)

Q: With “GGCGGTATCGACGAAGAATCTCGGGGCGGTGGGGAGGTTTCGGAGTCACCTAGTGCAG” as the sequence, how does the binding signal read?
A: 4450 fluorescence intensity (a.u.)

Q: Which binding signal does the source give for “GGGATGTGCGGGCGGCTCCGGCCTACGTGGGCGTGCCGGGCGGAGTCACCTAGTGCAG” here?
A: 6000 fluorescence intensity (a.u.)

Q: For “GCCACAAGTTTAAAGTGAAGCAACCATCAATTTTGGCCCACGGAGTCACCTAGTGCAG”, which binding signal is on record?
A: 3210 fluorescence intensity (a.u.)

Q: For “CGACCTTAATGTTCAACGTGTCATGCATTAGTGAAATAATCGGAGTCACCTAGTGCAG”, which binding signal is on record?
A: 4610 fluorescence intensity (a.u.)

Q: How did the binding signal turn out when “CCCAGGAACATGCATTCGTTCCATCCCTTTGATCAGCTGACGGAGTCACCTAGTGCAG” was run?
A: 3650 fluorescence intensity (a.u.)

Q: Which binding signal does the source give for “GTCCTCATCCTAGGTAAAATAACCACGTCATCTCACAGGTCGGAGTCACCTAGTGCAG” here?
A: 20700 fluorescence intensity (a.u.)

Q: How did the binding signal turn out when “GCCTCCCCATCGCGCTGCCACCTCCGCCTCCCGCCGTTCCCGGAGTCACCTAGTGCAG” was run?
A: 4670 fluorescence intensity (a.u.)

Q: Which binding signal does the source give for “GCTCGTCGTTGTGCCTCGCTCCAAACCGCCGAACCCGTGGCGGAGTCACCTAGTGCAG” here?
A: 3340 fluorescence intensity (a.u.)

Q: With “GAAAATTAACAAGTTTAAGGAGTCAGCATGGAAATTCGTCCGGAGTCACCTAGTGCAG” as the sequence, how does the binding signal read?
A: 5780 fluorescence intensity (a.u.)

Q: “CCCTCTTCGTCGACACCTCATCTCCTCCCCAAGAACCAGCCGGAGTCACCTAGTGCAG” was tested. Which binding signal did it give?
A: 3260 fluorescence intensity (a.u.)

Q: Which binding signal does the source give for “TTATCTGCAAATGGGTCGTTATCTCCTGAAGCTGTTGACACGGAGTCACCTAGTGCAG” here?
A: 17600 fluorescence intensity (a.u.)

Q: How did the binding signal turn out when “ACATGATTTGTGCTCCATGACCTCTTTCTTCTATTATCTACGGAGTCACCTAGTGCAG” was run?
A: 7980 fluorescence intensity (a.u.)

Q: With “TGCTATGCATACGACTCAGCTGTCCGACTCATGTATGAATCGGAGTCACCTAGTGCAG” as the sequence, how does the binding signal read?
A: 3720 fluorescence intensity (a.u.)

Q: For “GAAAATGAGTCAACTCCTATGTGGCATGTCACATGAGCACCGGAGTCACCTAGTGCAG”, which binding signal is on record?
A: 10400 fluorescence intensity (a.u.)

Q: For “CGTACTGTAGCTAGCTACTCTTTAGCAAGCTCACATCTTTCGGAGTCACCTAGTGCAG”, which binding signal is on record?
A: 3460 fluorescence intensity (a.u.)

Q: With “TCTCCAAAATTAAACACCTATTTATGAAGCTAAACGTCAGCGGAGTCACCTAGTGCAG” as the sequence, how does the binding signal read?
A: 3140 fluorescence intensity (a.u.)

Q: With “CGCCACCTAACCCACGATCTGATCGGTCTGTGACTGGTCACGGAGTCACCTAGTGCAG” as the sequence, how does the binding signal read?
A: 3510 fluorescence intensity (a.u.)

Q: Which binding signal does the source give for “CCACTAATCCCTCCTCTCATCGCACCACCACGCCACTGAGCGGAGTCACCTAGTGCAG” here?
A: 3590 fluorescence intensity (a.u.)

Q: Which binding signal does the source give for “GATGTGCGATAGCAGAATGGTGCTAAGTGAGTCACATCGTCGGAGTCACCTAGTGCAG” here?
A: 3970 fluorescence intensity (a.u.)

Q: How did the binding signal turn out when “ATTAATATGATTAAATAGAAATTAGTTACTCTCTTTGTCCCGGAGTCACCTAGTGCAG” was run?
A: 6140 fluorescence intensity (a.u.)

Q: For “ACGCCGACACCGCCGCGCCGCTCCGCCGCCCCTATCACGCCGGAGTCACCTAGTGCAG”, which binding signal is on record?
A: 16100 fluorescence intensity (a.u.)

Q: With “AGACTAGTTTTAATCTGACTAGATTCCTTTTCAGCGTGAGCGGAGTCACCTAGTGCAG” as the sequence, how does the binding signal read?
A: 5700 fluorescence intensity (a.u.)

Q: For “CGTGTCCTAATCACCTTGCTTACGTGGCACTTGCCGATTCCGGAGTCACCTAGTGCAG”, which binding signal is on record?
A: 43900 fluorescence intensity (a.u.)

Q: How did the binding signal turn out when “CGTTGGGTGTGGGCAAGCGGGCCACGGCATCACGTGCCTTCGGAGTCACCTAGTGCAG” was run?
A: 3160 fluorescence intensity (a.u.)

Q: For “TTCATATAAAATACACCGTTTAACAGTTTAATAAGCATTCCGGAGTCACCTAGTGCAG”, which binding signal is on record?
A: 12600 fluorescence intensity (a.u.)

Q: With “GTCCATCTAATCTAAAGTATGGTTTCTTGGTGAGTGAGTGCGGAGTCACCTAGTGCAG” as the sequence, how does the binding signal read?
A: 3710 fluorescence intensity (a.u.)

Q: Which binding signal does the source give for “TTTGTTCTAATCATCCTTCGATTGGGTTGGGTTGAGCAATCGGAGTCACCTAGTGCAG” here?
A: 3320 fluorescence intensity (a.u.)

Q: For “ACAACCTTATGCCTACATGGCGCATTTTGTTTGTTTGGGTCGGAGTCACCTAGTGCAG”, which binding signal is on record?
A: 3780 fluorescence intensity (a.u.)

Q: With “TATGTCATTGACATGTAGGTCCCACGTTAAGTCAGCTACCCGGAGTCACCTAGTGCAG” as the sequence, how does the binding signal read?
A: 34900 fluorescence intensity (a.u.)
